# Literature values in US20120251595A1, “EMULSION TEMPLATE METHOD TO FORM SMALL PARTICLES OF HYDROPHOBIC AGENTS WITH SURFACE ENRICHED HYDROPHILICITY BY ULTRA RAPID FREEZING” (BOARD OF REGENTS, THE UNIVERSITY OF TEXAS SYSTEM, priority 2009, published 2012).
# Conditions: reported; cited from earlier work
compound,measurement,value
"CCC(C)n1ncn(-c2ccc(N3CCN(c4ccc(OCC5COC(Cn6cncn6)(c6ccc(Cl)cc6Cl)O5)cc4)CC3)cc2)c1=O (centres unmarked) [ITZ, itraconazole]",Solubility in acidic media,approximately 4 μg/mL
same,Solubility in neutral media,~1 ng/mL
